Measurements as given in patent US4758552 (dated 1988).

Tests used:
[1] = general procedure: solution-phase peptide synthesis; azide fragment coupling; DCC/N-hydroxybenzotriazole; OPFP ester; DCC or DIC (sol)
[2] = Boc solid-phase peptide synthesis; azide fragment coupling; DCC/N-hydroxybenzotriazole; OPFP ester; DCC or DIC (sol); details: whole synthesis, resin weight gain

Substance: Boc-Mab-Leu-Arg-Pro-Gly-NH2
- step yield ([1]; late stage modification step): 78.3%

Substance: Boc-Mab-Leu-Arg(NO2)-Pro-Gly-NH2
- step yield ([1]; coupling step): 68% yield

Substance: H-Aa-Leu-Arg-Pro-NHEt.(TFA)2
- step yield ([1]; late stage modification step): 89.5% yield

Substance: [Aa^6, Gln^8, desGly^10 ]-gonadoliberin ethylamide
- step yield ([1]; coupling step): 52%

Substance: Glp-His-Trp-Ser-Tyr-N2 H3
- step yield ([1]; late stage modification step, two steps together): 56.9% yield as calculated for two steps together

Substance: Boc-Aa-Leu-Arg(NO2)-Pro-NHEt
- step yield ([1]; coupling step): 77.8% yield

Substance: Boc-Aa-Leu-Arg-Pro-NHEt
- step yield ([1]; late stage modification step): 82.5% yield

Substance: [Mab^6 ]-gonadiliberin
- step yield ([1]; coupling step): 52%

Substance: Boc-Aa-Leu-Gln-Pro-NHEt
- step yield ([1]; coupling step): 80% yield

Substance: H-Mab-Leu-Arg-Pro-Gly-NH2.(TFA)2
- step yield ([1]; late stage modification step): 91.5% yield

Substance: Glp-His(Tos)-Trp-Ser(oBzl)-Tyr(oBzl)-Aa-Leu-Arg(Tos)-Pro-Gly peptide resin
- crude yield [2]: 65% as ΔW

Substance: [Aa^6, desGly^10 ]-gonadoliberin ethylamide
- step yield ([1]; coupling step): 57.3% yield

Substance: H-Aa-Leu-Gln-Pro-NHEt.TFA
- step yield ([1]; late stage modification step): 86%

Substance: Glp-His(Tos)-Trp-Ser(oBzl)-Tyr(oBzl)-Aa-Leu-Arg(Tos)-Pro-Gly
- step yield ([1]; purification step, run 1): 54%
- step yield ([1]; purification step, run 2): 61.0%
